According to article PMC8041195:
Results are given in words; binding and its absence hold for the method and conditions named. In cells and extracts the contact can be indirect. Some entries that bind do so weakly or less than the wild type. Where a sequence is shown, tags or fusion partners need not be part of it.

T1: GFP-Stx8 (S. pombe) (UniProt O14222)
T1 sequence: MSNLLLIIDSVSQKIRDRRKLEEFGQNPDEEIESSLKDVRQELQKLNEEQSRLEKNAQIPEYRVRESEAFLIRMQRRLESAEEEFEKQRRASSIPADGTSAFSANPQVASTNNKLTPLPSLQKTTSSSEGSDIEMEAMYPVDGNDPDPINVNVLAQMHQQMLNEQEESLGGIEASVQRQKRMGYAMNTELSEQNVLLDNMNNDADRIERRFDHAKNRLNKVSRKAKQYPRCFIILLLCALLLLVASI

T2: Snx3 fused to the C-terminal half of Venus YFP (VC) (S. pombe) (UniProt O94291)
T2 sequence: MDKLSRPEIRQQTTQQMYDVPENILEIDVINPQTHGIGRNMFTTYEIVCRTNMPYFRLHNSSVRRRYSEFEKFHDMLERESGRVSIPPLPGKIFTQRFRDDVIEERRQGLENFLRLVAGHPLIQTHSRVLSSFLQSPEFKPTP


How the values were obtained:
GFP-Stx8 (S. pombe) = target: T1, GFP-Stx8 (S. pombe); experiment: co-IP; cleared lysates of S. pombe stx8Δ vps28Δ strains (also with snx3Δ or vps5Δ) in 20 mM HEPES pH 7.5, 150 mM NaCl, 5 mM EDTA, 0.2% Triton X100; 3 mg lysate treated with 1 mM DSP 1 h at 4°C; IP with anti-GFP μMAC magnetic beads; blot with anti-GFP and anti-HA
[1] = target: T2, Snx3 fused to the C-terminal half of Venus YFP (VC) (S. pombe); experiment: split reporter; BiFC in S. pombe cells: VN on the N-terminal end of Stx8, VC on the C-terminal end of Snx3; confocal spinning-disk fluorescence microscopy

Row | Binder | binding (GFP-Stx8 (S. pombe)) | binding [1]
1 | Vps35-HA (protein, UniProt O74552 1-836) MNGINTANEEITRSLEESLNICKQSSRLMQRNLQTGRLMDAFRNCSISLVEMRNSALTPKQYYELYMFNMESLRLLGGTLLETHLNGTHNLMDLYELVQYAGSIVPRLYLMITVGSAYLETPNALVREIMNDLLDMCRGVQHPLRGLFLRHYLLTQTRKGLPLGSEDEEDASRKGTVLDSVKFLVINFTEMNKLWVRIQHLGPIKEFSKRTQERNELKVLVGLNLVRLSQLNLDIDTYRDHVLPAIIEQIIECRDSLAQEYLVEVICQAFSDNMHLQTLDTYFGTVIKLSPSVNVTQLVVAMLNRLTDYVQREYESDSSNEDESETVTEKLGDIKINEEVQQKDEQECPGDKVIPPEYAIQEVLWSHVVEVIQSRSGLPLDCIVSILSSILNFFLRCYPYKPQYADRVFQYINEHIINQPSLRSALHERPLQKSLCAILLLPLTYFPSFSYCLELQNFLPVFNAQDPNLRYDIARMIVQKIIEKGHSLSELTEAQELLGFVSVIIEKKGVDSLDDLQNVALMVHYLNNDDPQIQIEILRSLKDTFIKAGENVKYLLPVVVNRCIFLARNFRIFKCMDWAEKVRLLWEFVNTCINVLYKNGDSLELCLALYLSAAEMADQENYPDFAYEFFTQAFSIYEESVLDSELQYQQLLMIIGKLQKTRNFSVDDYDTLITKCTLYASKLLKKPDQCCGIYLASHLWWQVASGEDSRPFQDPKRVLECLQKSLKIADACMDQLTSLKLFINILERYFYYYDQHCESIIAKHISGLIDLTEQNMRSILISSPADLIASDPRAYASSIWEVANVSVIDSLKNHLERATAYAEKRSEDERWSSIFQ | binds | –
2 | Stx8 fused to the N-terminal half of Venus YFP (VN) (protein, UniProt O14222 1-247) MSNLLLIIDSVSQKIRDRRKLEEFGQNPDEEIESSLKDVRQELQKLNEEQSRLEKNAQIPEYRVRESEAFLIRMQRRLESAEEEFEKQRRASSIPADGTSAFSANPQVASTNNKLTPLPSLQKTTSSSEGSDIEMEAMYPVDGNDPDPINVNVLAQMHQQMLNEQEESLGGIEASVQRQKRMGYAMNTELSEQNVLLDNMNNDADRIERRFDHAKNRLNKVSRKAKQYPRCFIILLLCALLLLVASI | – | binds
